No constants are given. Whether binding was seen depends on the method and setting. Binding seen in cells or lysates may run through a third protein.
Target: GFP-UBR5 (wild-type) (UniProt O95071)
Assay: co-IP

Sequences of proteins named here, by UniProt entry; tags and fusion partners are left off.
UniProt O95071: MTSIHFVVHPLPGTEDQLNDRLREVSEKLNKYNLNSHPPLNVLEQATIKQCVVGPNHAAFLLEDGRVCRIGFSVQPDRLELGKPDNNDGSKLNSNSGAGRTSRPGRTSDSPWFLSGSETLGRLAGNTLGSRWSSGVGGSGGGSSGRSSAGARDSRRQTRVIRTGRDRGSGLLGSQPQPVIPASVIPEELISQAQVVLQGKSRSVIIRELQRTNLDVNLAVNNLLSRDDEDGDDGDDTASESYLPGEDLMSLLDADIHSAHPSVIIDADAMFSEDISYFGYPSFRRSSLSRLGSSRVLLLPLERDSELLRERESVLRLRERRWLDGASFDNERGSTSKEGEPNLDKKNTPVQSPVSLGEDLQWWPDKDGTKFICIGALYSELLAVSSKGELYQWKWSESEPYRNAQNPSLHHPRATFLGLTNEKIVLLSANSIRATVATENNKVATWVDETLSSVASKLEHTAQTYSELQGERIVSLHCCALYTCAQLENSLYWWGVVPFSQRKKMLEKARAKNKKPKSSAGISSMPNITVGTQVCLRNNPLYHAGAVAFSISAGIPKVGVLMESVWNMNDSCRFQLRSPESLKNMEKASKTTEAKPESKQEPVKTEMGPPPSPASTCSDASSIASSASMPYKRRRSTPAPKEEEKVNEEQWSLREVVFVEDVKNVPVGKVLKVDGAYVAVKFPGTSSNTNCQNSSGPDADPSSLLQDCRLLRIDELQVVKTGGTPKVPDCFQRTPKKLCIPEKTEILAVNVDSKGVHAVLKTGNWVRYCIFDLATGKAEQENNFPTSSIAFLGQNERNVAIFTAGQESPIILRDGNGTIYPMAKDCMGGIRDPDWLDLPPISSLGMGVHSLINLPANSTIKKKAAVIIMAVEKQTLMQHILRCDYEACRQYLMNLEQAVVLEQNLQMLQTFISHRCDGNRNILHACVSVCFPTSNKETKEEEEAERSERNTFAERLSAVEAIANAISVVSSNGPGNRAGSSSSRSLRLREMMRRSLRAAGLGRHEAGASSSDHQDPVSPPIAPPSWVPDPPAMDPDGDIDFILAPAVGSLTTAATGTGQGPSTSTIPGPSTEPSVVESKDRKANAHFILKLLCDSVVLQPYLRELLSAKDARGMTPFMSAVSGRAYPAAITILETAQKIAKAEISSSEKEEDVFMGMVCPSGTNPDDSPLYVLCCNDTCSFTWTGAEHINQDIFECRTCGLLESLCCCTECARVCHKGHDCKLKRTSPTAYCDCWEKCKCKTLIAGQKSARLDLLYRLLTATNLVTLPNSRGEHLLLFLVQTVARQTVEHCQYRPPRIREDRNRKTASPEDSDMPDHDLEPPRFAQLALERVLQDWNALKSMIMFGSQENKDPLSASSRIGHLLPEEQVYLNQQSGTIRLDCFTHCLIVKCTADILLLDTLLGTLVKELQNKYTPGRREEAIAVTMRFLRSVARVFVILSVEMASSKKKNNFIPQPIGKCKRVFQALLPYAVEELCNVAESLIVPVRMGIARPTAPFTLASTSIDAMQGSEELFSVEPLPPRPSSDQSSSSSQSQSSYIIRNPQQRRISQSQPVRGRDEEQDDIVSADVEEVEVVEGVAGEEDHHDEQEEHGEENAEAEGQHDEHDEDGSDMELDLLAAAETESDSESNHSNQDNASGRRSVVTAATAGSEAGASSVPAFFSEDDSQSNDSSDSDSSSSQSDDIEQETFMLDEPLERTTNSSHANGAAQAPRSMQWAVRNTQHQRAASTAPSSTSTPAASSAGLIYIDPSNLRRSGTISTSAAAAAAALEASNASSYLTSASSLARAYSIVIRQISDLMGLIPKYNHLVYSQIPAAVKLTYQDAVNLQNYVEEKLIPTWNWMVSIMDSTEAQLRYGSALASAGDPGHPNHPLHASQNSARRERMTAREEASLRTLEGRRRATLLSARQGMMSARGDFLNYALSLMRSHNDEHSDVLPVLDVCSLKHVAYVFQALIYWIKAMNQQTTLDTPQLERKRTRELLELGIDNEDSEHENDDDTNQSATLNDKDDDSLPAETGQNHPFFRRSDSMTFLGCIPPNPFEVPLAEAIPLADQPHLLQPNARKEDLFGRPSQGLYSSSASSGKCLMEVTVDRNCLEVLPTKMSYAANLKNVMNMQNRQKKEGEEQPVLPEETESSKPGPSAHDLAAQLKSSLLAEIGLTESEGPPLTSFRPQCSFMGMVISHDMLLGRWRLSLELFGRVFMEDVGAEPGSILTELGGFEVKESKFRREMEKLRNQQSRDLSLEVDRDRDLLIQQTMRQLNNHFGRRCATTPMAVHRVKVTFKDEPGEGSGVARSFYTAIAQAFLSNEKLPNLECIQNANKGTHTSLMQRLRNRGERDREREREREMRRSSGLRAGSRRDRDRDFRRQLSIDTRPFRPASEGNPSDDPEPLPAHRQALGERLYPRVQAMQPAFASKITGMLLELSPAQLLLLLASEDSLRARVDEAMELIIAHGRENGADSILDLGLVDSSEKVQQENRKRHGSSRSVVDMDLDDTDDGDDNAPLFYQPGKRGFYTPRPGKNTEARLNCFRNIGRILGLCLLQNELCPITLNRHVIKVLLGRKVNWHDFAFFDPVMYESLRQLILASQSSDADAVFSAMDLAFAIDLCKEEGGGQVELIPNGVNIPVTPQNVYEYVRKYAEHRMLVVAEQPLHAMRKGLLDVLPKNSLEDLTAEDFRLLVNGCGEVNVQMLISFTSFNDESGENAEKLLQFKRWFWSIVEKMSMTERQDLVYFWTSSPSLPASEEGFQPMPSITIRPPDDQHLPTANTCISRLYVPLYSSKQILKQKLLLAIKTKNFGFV
UniProt Q15154: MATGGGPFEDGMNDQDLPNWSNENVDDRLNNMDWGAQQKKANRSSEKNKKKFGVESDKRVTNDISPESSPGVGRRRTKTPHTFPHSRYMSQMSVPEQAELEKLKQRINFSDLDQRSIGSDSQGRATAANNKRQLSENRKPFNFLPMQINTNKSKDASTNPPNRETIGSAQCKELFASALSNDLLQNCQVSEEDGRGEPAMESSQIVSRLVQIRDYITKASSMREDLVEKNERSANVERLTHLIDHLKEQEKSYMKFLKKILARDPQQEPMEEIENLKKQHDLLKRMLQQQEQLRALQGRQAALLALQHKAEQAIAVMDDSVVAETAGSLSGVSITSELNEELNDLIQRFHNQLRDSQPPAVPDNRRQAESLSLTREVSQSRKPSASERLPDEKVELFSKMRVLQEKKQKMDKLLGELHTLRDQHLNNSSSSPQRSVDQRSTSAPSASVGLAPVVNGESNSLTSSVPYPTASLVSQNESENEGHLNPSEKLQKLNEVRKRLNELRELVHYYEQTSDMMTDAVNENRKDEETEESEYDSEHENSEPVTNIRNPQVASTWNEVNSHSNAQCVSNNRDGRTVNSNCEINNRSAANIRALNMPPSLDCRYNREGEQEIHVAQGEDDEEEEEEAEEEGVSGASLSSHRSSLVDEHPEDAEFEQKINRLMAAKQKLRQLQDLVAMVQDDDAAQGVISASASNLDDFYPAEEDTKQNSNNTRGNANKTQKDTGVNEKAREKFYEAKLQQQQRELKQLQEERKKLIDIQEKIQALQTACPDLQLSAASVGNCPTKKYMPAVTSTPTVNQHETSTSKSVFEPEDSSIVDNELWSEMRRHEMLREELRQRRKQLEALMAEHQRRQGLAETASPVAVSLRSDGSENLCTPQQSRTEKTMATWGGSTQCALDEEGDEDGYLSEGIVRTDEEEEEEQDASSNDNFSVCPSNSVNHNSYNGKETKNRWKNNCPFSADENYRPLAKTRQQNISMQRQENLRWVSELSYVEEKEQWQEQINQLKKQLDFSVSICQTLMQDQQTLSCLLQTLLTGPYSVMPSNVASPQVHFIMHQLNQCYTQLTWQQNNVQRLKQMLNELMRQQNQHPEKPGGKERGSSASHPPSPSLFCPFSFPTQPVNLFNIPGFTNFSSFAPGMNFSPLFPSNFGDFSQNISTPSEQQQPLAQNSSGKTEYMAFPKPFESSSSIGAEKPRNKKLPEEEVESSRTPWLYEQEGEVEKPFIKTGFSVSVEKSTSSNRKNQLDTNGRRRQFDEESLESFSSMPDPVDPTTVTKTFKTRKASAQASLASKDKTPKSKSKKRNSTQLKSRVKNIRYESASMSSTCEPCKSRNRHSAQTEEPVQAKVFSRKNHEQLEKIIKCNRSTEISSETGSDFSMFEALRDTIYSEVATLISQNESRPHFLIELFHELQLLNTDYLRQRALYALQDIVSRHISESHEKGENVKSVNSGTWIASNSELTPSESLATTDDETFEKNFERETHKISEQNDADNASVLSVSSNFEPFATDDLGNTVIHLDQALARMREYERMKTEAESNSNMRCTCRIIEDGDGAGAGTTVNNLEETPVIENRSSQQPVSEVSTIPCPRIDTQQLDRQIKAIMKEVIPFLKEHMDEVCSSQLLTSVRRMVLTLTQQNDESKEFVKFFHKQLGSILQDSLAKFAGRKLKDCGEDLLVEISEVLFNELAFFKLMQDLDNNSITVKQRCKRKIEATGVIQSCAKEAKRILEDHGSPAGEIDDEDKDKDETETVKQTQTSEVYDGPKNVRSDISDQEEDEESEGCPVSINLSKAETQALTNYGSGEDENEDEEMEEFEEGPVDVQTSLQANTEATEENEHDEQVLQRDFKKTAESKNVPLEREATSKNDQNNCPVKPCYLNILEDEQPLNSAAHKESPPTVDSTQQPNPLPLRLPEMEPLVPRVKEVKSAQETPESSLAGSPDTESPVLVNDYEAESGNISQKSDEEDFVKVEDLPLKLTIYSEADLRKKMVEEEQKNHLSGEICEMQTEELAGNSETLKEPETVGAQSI

## PCM1 (pericentriolar material 1) (from UniProt Q15154 1-2024)
  binding: no binding

— publication doi:10.1101/090100
